# Reference: ChEMBL document CHEMBL2163215, “Mitigating hERG Inhibition: Design of Orally Bioavailable CCR5 Antagonists as Potent Inhibitors of R5 HIV-1 Replication” (ACS Med Chem Lett, 2012)
# Experiment: Toxicity in rat administered for 7 days
# Conditions: in vivo
row,SMILES,NOAEL at 168 h [mg/kg]
1,CONC(=O)N(Cc1ccsc1)C1CCN([C@H](C)CCNC(=O)c2c(C)cc(Cl)nc2C)CC1,≥ 400
2,COCC(=O)N(Cc1ccsc1)C1CCN([C@H](C)CCNC(=O)c2c(C)cc(Cl)nc2C)CC1,≥ 400
